Assay results published in PubChem BioAssay AID2551 (National Center for Advancing Translational Sciences (NCATS), 2010).
The whole screen tested about 310,000 compounds, of which about 17,000 (5.5%) were called active. The shares of active, inactive and inconclusive entries below differ from those in the screen. The call rests on the fitted dose curve; in most records, active means well fitted inhibition curve with a large enough effect; inconclusive means small, poorly fitted or top-dose-only effect, or effect the other way; inactive means no such curve, though single readings can be large or run the other way. Potencies beside an inconclusive call are fits to weak or partial responses and may not hold up. Where a structure was tested more than once in an assay, its records may differ in their call.

Sequences of proteins named here, by UniProt entry; tags and fusion partners are left off. A change or cut given only in a name is not applied to a line headed by its entry.
UniProt P51450: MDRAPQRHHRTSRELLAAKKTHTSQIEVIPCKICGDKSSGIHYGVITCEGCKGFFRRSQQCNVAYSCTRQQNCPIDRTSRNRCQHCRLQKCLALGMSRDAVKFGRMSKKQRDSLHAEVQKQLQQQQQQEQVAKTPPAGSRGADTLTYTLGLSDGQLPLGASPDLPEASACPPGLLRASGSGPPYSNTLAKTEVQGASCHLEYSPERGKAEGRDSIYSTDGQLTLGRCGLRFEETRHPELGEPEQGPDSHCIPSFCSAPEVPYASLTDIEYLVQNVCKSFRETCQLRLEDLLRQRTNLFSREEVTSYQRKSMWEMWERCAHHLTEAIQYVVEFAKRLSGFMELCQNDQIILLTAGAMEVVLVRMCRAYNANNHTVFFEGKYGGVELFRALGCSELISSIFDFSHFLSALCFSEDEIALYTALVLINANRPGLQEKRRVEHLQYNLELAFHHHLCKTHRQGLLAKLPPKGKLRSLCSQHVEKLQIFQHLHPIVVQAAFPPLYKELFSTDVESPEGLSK

Molecular target: Nuclear receptor ROR-gamma (Mus musculus) (UniProt P51450)
Experiment: qHTS for inhibitors of ROR gamma transcriptional activity; further: nearly all actives have a fitted effect of over 60% in size
Settings: Drosophila S2 Gal4-RORgamma UAS-luciferase reporter, 20 h; activity change, negative = inhibition: at 53.6 µM (top of the series)
Method in brief: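 In this cell-based reporter format, copper sulfate (700 uM final) drives Gal4–ROR gamma fusion expression from a metallothionein promoter in Drosophila Schneider cells; compounds preincubated 1 hr, reporter read after 20 hr at ambient temperature.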
On the % scale 0 is the no-effect control and ±100 the full control effect; potency means the concentration at half of the fitted maximal effect.

Structure (SMILES) | Potency | activity change, negative = inhibition
O=C(O)c1ccccc1-c1c2cc(Br)c(=O)cc-2oc2[c]([Hg])c(O)c(Br)cc12 | inconclusive: 22.4 µM [inhibitor, single point] | –
NP(=O)(OCCCCc1ccccc1)Oc1ccccc1Cl (configuration not stated) | inconclusive: 35.5 µM [inhibitor, single point] | –
CCCC(C)C1C(C#N)=C(N)Oc2c1c(=O)oc1ccccc21 (configuration not stated) | inconclusive: 0.199 µM [activator, full curve, poor fit] | –
CC(C)CNC(=O)c1c(N)n(Cc2ccc3c(c2)OCO3)c2nc3ccccc3nc12 | inconclusive: 20 µM [inhibitor, single point] | –
O=C(O)Cn1cc(C=C2C(=O)NC(=O)NC2=O)c2ccccc21 | inactive | –
Cc1nn(CCC#N)c2c1P(=S)(N1CCCC1)OC(c1ccc(F)cc1)=N2 (configuration not stated) | inactive | –
CCC/C=C(\CCC)C(NP(=O)(c1ccccc1)c1ccccc1)c1ccccc1 (configuration not stated) | inconclusive: 22.4 µM [inhibitor, single point] | –
CN(C)c1ccc(/C=C2/C(=N\O)C3CCN2CC3)cc1 | inactive | –
COc1cc2c(cc1OC)-c1c(OC)c(OC)c(CO)c3c1C(C2)N(C)CC3 (configuration not stated) | inactive | –
Cn1cccc1/C=C1\C(=O)NC(=O)N(CCC2=CCCCC2)C1=O | inactive | –
CCCCC(=O)N/N=C/c1c(O)n(CC)c(=S)[nH]c1=O | active: 11.2 µM | –
CCCCCn1c(=O)c(C(=O)Nc2cccc(C)c2)c(O)c2ccccc21 | – | inactive: -0.497% [at 1.91 µM]
COC(=O)C(O)(c1ccc(NC(=O)Oc2ccccc2)cc1)C(F)(F)F (configuration not stated) | inconclusive: 11.2 µM [activator, partial curve] | –
Cc1ccc(-n2c(C)nc3ccccc3c2=O)cc1C | inactive | –
Cc1[nH]c(=O)n(C(C)(C)C)c(=O)c1Cl | inactive | –
COP(=O)(OC)C1(Nc2ccc(C)cc2)CCCCC1 | inconclusive: 22.4 µM [inhibitor, single point] | –
NS(=O)(=O)c1ccc(N=Cc2c(O)n(C3CCCCC3)c(=O)n(C3CCCCC3)c2=O)cc1 | inactive | –
C=CCN1C(=O)C2(C(C(=O)OCC)=C(N)Oc3ccccc32)c2c1c1ccccc1oc2=O (configuration not stated) | inactive | –
COc1cc(C2c3cc4c(cc3C(OC(C)=O)[C@H]3COC(=O)C23)OCO4)cc(OC)c1OC (some centres not stated) | inactive | –
CSc1ccc(CN2CCN(C(=O)COc3cccc(C)c3)CC2)cc1 | inconclusive: 35.5 µM [activator, single point] | –
COc1cc(C2c3cc4c(cc3C(O)[C@H]3COC(=O)C23)OCO4)cc(OC)c1OC (some centres not stated) | inconclusive: 1.12 µM [inhibitor, full curve, poor fit] | –
Cc1cc(I)ccc1Nc1c(C(=O)NOCC2CC2)cc(F)c(F)c1F | inconclusive: 28.2 µM [inhibitor, single point] | –
O=C(N/N=C/c1c(O)n(Cc2ccco2)c(=O)[nH]c1=O)c1ccccc1 | inconclusive: 35.5 µM [inhibitor, single point] | –
c1nc[nH]n1 | inactive | –

Structure (SMILES) | Potency | activity change, negative = inhibition
CCC(=NCCOc1ccc(Cl)cc1)c1c(O)n(C)c(=O)n(C)c1=O | inconclusive: 35.5 µM [inhibitor, single point] | –
C[C@@H]1C[C@H]2CC[C@H](O2)[C@H](C)C(=O)O[C@@H](C)C[C@@H]2CC[C@@H](O2)[C@@H](C)C(=O)O[C@H](C)C[C@H]2CC[C@H](O2)[C@H](C)C(=O)O[C@@H](C)C[C@@H]2CC[C@@H](O2)[C@@H](C)C(=O)O1 | active: 0.891 µM | –
COc1ccc(NC(=O)N2CCC3(CC2)OCCO3)cc1 | inactive | –
Cc1ccc(CS(=O)(=O)Cc2ccc(C(=O)N3CCC4(CC3)OCCO4)o2)cc1 | inconclusive: 3.55 µM [activator, single point] | –
CC/C(=N\Nc1ccccc1)c1c(O)n(C)c(=O)n(C)c1=O | inconclusive: 22.4 µM [activator, single point] | –
COc1ccccc1CN1CCCC2(CCN(C(=O)Oc3ccccc3)CC2)C1 | inactive | –
O=C1c2ccccc2C(=O)N1SC1CCCCC1 | inconclusive: 22.4 µM [inhibitor, single point] | –
O=C(CSc1ncnc2c1nnn2-c1ccc(F)cc1)NCC1CCCO1 (configuration not stated) | inconclusive: 28.2 µM [inhibitor, single point] | –
Cc1ccc(N2C(=O)NC(=O)/C(=C\C=C\c3ccco3)C2=O)cc1C | active: 12.6 µM | –
CC(C)CCCn1c(O)c(/C=C2/C=CC=N2)c(=O)[nH]c1=O | inconclusive: 31.6 µM [activator, single point] | –
CCN(CC)c1ccc(/C=C2\C(=O)NC(=O)N(Cc3ccco3)C2=O)cc1 | inconclusive: 35.5 µM [activator, single point] | –
O=Cc1cn(Cc2ccc(F)cc2Cl)c2ccccc12 | inconclusive: 11.2 µM [activator, partial curve] | –
O=C1c2ccccc2C(=O)N1Cc1nc2ccccc2c(=O)n1-c1ccc(Br)cn1 | inconclusive: 11.2 µM [activator, partial curve, poor fit] | –
CC(=NCc1ccco1)c1c(O)n(-c2ccccc2)c(=O)[nH]c1=O | inconclusive: 35.5 µM [activator, single point] | –
Nc1c(C(=O)NCCCc2ccccc2)c2nc3ccccc3nc2n1Cc1cccs1 | inconclusive: 25.1 µM [inhibitor, single point] | –
CCCCOC(=O)c1ccccc1C(=O)OCc1ccccc1 | inconclusive: 22.4 µM [activator, single point] | –
COC(=O)[C@@H]1C[C@H](OC(C)=O)C(=O)[C@H]2[C@@]1(C)CC[C@H]1C(=O)O[C@H](c3ccoc3)C[C@]21C | inactive | –
O=c1c2ccccc2[nH]c(=S)n1-c1ccc(Br)cc1 | active: 0.891 µM | –
CC[C@]1([C@H]2O[C@@H]([C@@H]3O[C@](O)(CO)[C@@H](C)C[C@H]3C)C[C@H]2C)CC[C@@H]([C@]2(C)CC[C@@]3(C[C@@H](O)[C@@H](C)[C@@H]([C@H](C)[C@H](OC)[C@H](C)C(=O)O)O3)O2)O1 | inconclusive: 1 µM [activator, full curve, poor fit] | –
O=c1[nH]c(=S)n(CCC2=CCCCC2)c(O)c1/C=N/N1CCOCC1 | inconclusive: 22.4 µM [inhibitor, single point] | –
OCC1OC(n2cnc3cc(Cl)c(Cl)cc32)C(O)C1O (configuration not stated) | inconclusive: 35.5 µM [inhibitor, single point] | –
COc1ccc(Cn2c(N)c(C(=O)NCc3ccco3)c3nc4ccccc4nc32)cc1 | inconclusive: 14.1 µM [activator, single point] | –
CN1C(=O)CCS(=O)(=O)[C@H]1c1ccc(Cl)cc1 | inconclusive: 31.6 µM [activator, single point] | –
c1ccc2c(c1)OC[C@@H](C1=NCCN1)O2 | active: 22.4 µM | –

Structure (SMILES) | Potency | activity change, negative = inhibition
[CH3][Hg][Cl] | active: 0.891 µM | –
COc1ccc(-n2c(O)c(C(C)=NCCCn3ccnc3)c(=O)[nH]c2=O)cc1 | inactive | –
CC(C)CCNC(=O)c1c(N)n(CC2CCCO2)c2nc3ccccc3nc12 (configuration not stated) | inactive | –
CCOC(=O)N1CCN(CC(O)COCCC23CC4CC(CC(C4)C2)C3)CC1 (configuration not stated) | inconclusive: 6.31 µM [inhibitor, single point] | –
c1ccc(C2CN3CCC2CC3)cc1 (configuration not stated) | inactive | –
CCCCCCCCCCCCCC(=O)O[C@@H]1[C@@H](C)[C@@]2(O)[C@@H](C=C(CO)C[C@]3(O)C(=O)C(C)=C[C@@H]23)[C@@H]2C(C)(C)[C@]12OC(C)=O | inconclusive: 10 µM [inhibitor, partial curve] | –
CC(C)CNP(=S)(c1ccccc1)C(C)(C)C (configuration not stated) | active: 7.94 µM | –
CN1C(=O)C(=Cc2cccnc2)C(=O)N(C)C1=O | inactive | –
C=CCN1CCc2cccc3c2[C@H]1Cc1ccc(O)c(O)c1-3 | inconclusive: 35.5 µM [inhibitor, single point] | –
CCC[N+](=O)[O-] | inactive | –
Cc1ncc(CN2CC=C(c3ccccc3)CC2)c(N)n1 | inconclusive: 3.16 µM [inhibitor, single point] | –
COc1ccc(CCNCc2ccsc2)cc1OC | inconclusive: 35.5 µM [inhibitor, single point] | –
COc1ccc(CC[n+]2cc(/N=C(\C)[O-])on2)cc1OC | inconclusive: 11.2 µM [inhibitor, single point] | –
Cn1c(O)c(C(=NCCN2CCCCC2)c2ccccc2Cl)c(=O)n(C)c1=O | inactive | –
O=C1NC(=O)C(=Cc2ccc(-c3ccc(Cl)cc3)o2)C(=O)N1 | inconclusive: 8.91 µM [inhibitor, single point] | –
O=C1NC(=O)C(=Cc2ccc(N3CCN(C(=O)c4ccccc4)CC3)c([N+](=O)[O-])c2)C(=O)N1 | inactive | –
Clc1ccc(CNCCc2ccc3c(c2)OCO3)cc1 | inactive | –
COC(=O)NC(=C(Cl)Cl)P(=O)(c1ccccc1)c1ccccc1 | inactive | –
COC(=O)[C@]1(C)CC[C@@]2(C)CC[C@@]3(C)C4=CCc5c(cc(O)c(O)c5C)[C@]4(C)CC[C@@]3(C)C2C1 (some centres not stated) | inconclusive: 35.5 µM [inhibitor, single point] | –
COC(=O)Nc1ccc(N=C(N)N[N+](=O)[O-])cc1 | inactive | –
CCN(CC)CCCC(C)N=C(c1ccccc1)c1c(O)n(C)c(=O)n(C)c1=O (configuration not stated) | active: 0.631 µM | –
O=C(c1cc2c(s1)-c1ccccc1OC2)N1CCC2(CC1)OCCO2 | inactive | –
O=c1c2ccccc2nc(/C=C/c2ccco2)n1-c1ccccc1O | inconclusive: 35.5 µM [inhibitor, single point] | –
Cc1ccsc1C(=O)C1CCCN(Cc2sc(N(C)C)nc2Cl)C1 (configuration not stated) | inactive | –
